Test results reported in the supplement of paper PMC12889115.
Some of the results follow. Values are raw readings; no control value is given beside them.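 Primary screen: polymyxin B was added at a level permeabilizing Salmonella outer membranes while sparing inner membranes. DMSO wells, both with and without polymyxin B, established maximum growth. Plate-to-plate variation meant each plate was ranked on its own, and the lowest-OD600 compounds were selected as hits.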

System: Salmonella enterica serovar Typhimurium SL1344
Test: bacterial growth OD600 after 18 h with compound and polymyxin B; higher = more bacterial growth (less inhibition)
Conditions: 50 µM, Mueller-Hinton broth

With `CCC(=O)N[C@@H]1c2ccccc2C2(CCN(Cc3cc(OC)ccc3OC)CC2)[C@H]1OCCOC` the “bacterial growth OD600” value (polymyxin B 0.75 µg/mL) was 0.843.
`CCN1CCN(C2(C(=O)N(C)Cc3nc(C)cs3)Cc3ccccc3C2)CC1` was tested, and the “bacterial growth OD600” value (polymyxin B 0.75 µg/mL) was 0.384.
With `O=C(CCC1CCCN(Cc2cc3c(cc2Cl)OCO3)C1)Nc1ccccc1F` (configuration not stated) the “bacterial growth OD600” value (polymyxin B 1 µg/mL) was 0.922.
For `CCC(=O)NC1CC(=O)N(CCc2ccc(OC)cc2)C1` (configuration not stated), the “bacterial growth OD600” value (polymyxin B 1 µg/mL) was 0.918.
For `CC(=O)NCC(=O)N1CCC(C2CCN(Cc3cccc(F)c3F)CC2)C1` (configuration not stated), the “bacterial growth OD600” value (polymyxin B 0.75 µg/mL) was 0.839.
`Cc1ccc(Cl)cc1N1CCN(Cc2nc(-c3ccccn3)no2)CC1` was tested, and the “bacterial growth OD600” value (polymyxin B 1 µg/mL) was 0.591.
With `CC(=O)Nc1ccc(CN2Cc3cc(Cl)ccc3OC(C)C2)s1` (configuration not stated) the “bacterial growth OD600” value (polymyxin B 0.75 µg/mL) was 0.329.
With `CCOc1ccccc1CN1CCC(O)(Cc2cc(-c3ccccc3)no2)CC1` the “bacterial growth OD600” value (polymyxin B 1 µg/mL) was 0.895.
`CC(C)C(O)C1CCN(C(=O)c2csc3nc(-c4ccc(F)cc4)cn23)CC1` (configuration not stated) was tested, and the “bacterial growth OD600” value (polymyxin B 1 µg/mL) was 0.98.
For `COCCn1cnc2cc(NC(=O)C3CCCCC3)cc(C(=O)N3CCc4sccc4C3)c21`, the “bacterial growth OD600” value (polymyxin B 0.75 µg/mL) was 0.721.
For `COc1cc(C2CCN(CC3CC3)c3ccccc3S2)cc(OC)c1OC` (configuration not stated), the “bacterial growth OD600” value (polymyxin B 0.75 µg/mL) was 0.745.
With `Cc1cc(F)ccc1NC(=O)CCC1CCCN(C(=O)c2coc3c2C(=O)CCC3)C1` (configuration not stated) the “bacterial growth OD600” value (polymyxin B 1 µg/mL) was 0.932.
In the case of `CN1C(=O)CC(CC(=O)N2CCC(Oc3cccnc3)CC2)(c2ccc(-c3ccccc3)cc2)C1=O` (configuration not stated), the “bacterial growth OD600” value (polymyxin B 0.75 µg/mL) is reported as 0.002.
In the case of `COCCC(=O)NCc1ccc2[nH]c(-c3ccc(F)cc3)c(C)c2c1`, the “bacterial growth OD600” value (polymyxin B 1 µg/mL) is reported as 0.81.
`CCn1cc(CN2CCC(C(=O)Nc3ccc(Oc4cccnc4)cc3)CC2)c(C)n1` was tested, and the “bacterial growth OD600” value (polymyxin B 1 µg/mL) was 0.891.
With `CC(CNC1CCN(c2ccc(C(=O)NCc3ccc4c(c3)OCO4)cc2)CC1)Oc1cccnc1` (configuration not stated) the “bacterial growth OD600” value (polymyxin B 0.75 µg/mL) was 0.843.
For `CC(c1nccs1)N(C)C(=O)c1csc2nc(-c3ccccc3Cl)cn12` (configuration not stated), the “bacterial growth OD600” value (polymyxin B 1 µg/mL) was 0.148.
With `CC(C)(C)NC(=O)c1cc(Cl)ccc1OC1CCN(Cc2cccnc2)CC1` the “bacterial growth OD600” value (polymyxin B 1 µg/mL) was 1.04.
For `O=C(NCc1cccnc1Oc1ccccc1)C1CCC1`, the “bacterial growth OD600” value (polymyxin B 0.75 µg/mL) was 0.816.
With `O=C(CCc1cccs1)NC1CCCc2nc(-c3cccnc3)ncc21` (configuration not stated) the “bacterial growth OD600” value (polymyxin B 0.75 µg/mL) was 0.783.
For `CCN1CCN(C2(C(=O)NC3CCCC3)Cc3ccccc3C2)CC1`, the “bacterial growth OD600” value (polymyxin B 0.75 µg/mL) was 0.734.
In the case of `Cn1ccnc1CN1CCCC(CCc2ccc(F)c(F)c2)C1` (configuration not stated), the “bacterial growth OD600” value (polymyxin B 0.75 µg/mL) is reported as 0.749.
With `COc1cc(=O)n2c(c1C(=O)NC(C)c1ccco1)CCN(Cc1ccc(C(C)C)cc1)CC2` (configuration not stated) the “bacterial growth OD600” value (polymyxin B 0.75 µg/mL) was 0.701.
In the case of `Cc1c(CC(=O)NCC(F)(F)F)c2c(n1Cc1ccccc1F)CCCC2=O`, the “bacterial growth OD600” value (polymyxin B 1 µg/mL) is reported as 0.789.
For `Cc1nnc(CN(C)C(=O)CC2(c3ccccc3C)CC(=O)N(Cc3ccccc3)C2=O)o1` (configuration not stated), the “bacterial growth OD600” value (polymyxin B 0.75 µg/mL) was 0.824.
`COc1cc(C(=O)NCc2cccc(SC)c2)ccc1OC1CCN(C(C)=O)CC1` was tested, and the “bacterial growth OD600” value (polymyxin B 1 µg/mL) was 0.798.
In the case of `CCN1CCN(C2(C(=O)NCCc3cscn3)Cc3ccccc3C2)CC1`, the “bacterial growth OD600” value (polymyxin B 0.75 µg/mL) is reported as 0.802.
For `CC1=C(C(=O)N2CCCC(N3CCN(c4cccc(C(F)(F)F)c4)CC3)C2)OCCO1` (configuration not stated), the “bacterial growth OD600” value (polymyxin B 1 µg/mL) was 0.97.
With `CCC(C)CC(=O)NCc1nc(-c2ccccc2NC(=O)Cc2ccccc2)oc1C` (configuration not stated) the “bacterial growth OD600” value (polymyxin B 0.75 µg/mL) was 0.778.
For `CN(Cc1cn(Cc2ccccc2)nc1-c1ccc2c(c1)OCO2)C1CCOC1` (configuration not stated), the “bacterial growth OD600” value (polymyxin B 1 µg/mL) was 0.843.
In the case of `CN(C)C(=O)CCC(=O)N1CCCC(CCc2ccc(F)c(F)c2)C1` (configuration not stated), the “bacterial growth OD600” value (polymyxin B 0.75 µg/mL) is reported as 0.805.
For `CCn1cc(CN2CCC(Oc3cc(OC)ccc3C(=O)NCCOC)CC2)cn1`, the “bacterial growth OD600” value (polymyxin B 1 µg/mL) was 1.23.
